Read-outs that look alike come from different tables or passages of the source. These are yes or no findings as the source states them, for the method shown. Binding seen in cells or lysates may run through a third protein. Some binding calls cover weakened binding; strength is not graded here. For some assays here: Where a sequence is shown, tags or fusion partners need not be part of it.
Legend:
Flag-3BP2 (mouse) [1] = target: T1, Flag-3BP2 (mouse) (UniProt Q06649); assay: co-IP; tagged constructs cotransfected in HEK293T; immune complexes of the tagged bait (HA-SRC, HA-SYK, Flag-TLR2, Myc-TLR2, Flag-3BP2) on Dynabeads Protein A or G at 4 C, Western blot; with or without coexpressed SRC (Figure 1L)
T1 sequence: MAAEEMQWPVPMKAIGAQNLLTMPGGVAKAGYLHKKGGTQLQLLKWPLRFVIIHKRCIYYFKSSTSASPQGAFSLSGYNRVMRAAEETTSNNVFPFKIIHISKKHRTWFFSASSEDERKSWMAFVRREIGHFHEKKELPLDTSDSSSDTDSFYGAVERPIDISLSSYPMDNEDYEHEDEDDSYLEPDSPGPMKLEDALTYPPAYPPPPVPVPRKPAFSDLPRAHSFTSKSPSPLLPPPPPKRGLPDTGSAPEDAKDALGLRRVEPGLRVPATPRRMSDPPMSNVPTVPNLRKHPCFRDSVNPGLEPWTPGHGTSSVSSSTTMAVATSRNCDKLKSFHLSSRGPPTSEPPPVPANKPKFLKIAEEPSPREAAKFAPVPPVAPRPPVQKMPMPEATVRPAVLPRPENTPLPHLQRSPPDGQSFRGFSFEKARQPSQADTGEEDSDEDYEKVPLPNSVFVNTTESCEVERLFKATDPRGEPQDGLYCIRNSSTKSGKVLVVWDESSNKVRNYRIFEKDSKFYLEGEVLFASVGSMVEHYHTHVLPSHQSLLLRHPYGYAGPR

Protein sequences, listed by entry. Tags and fused reporters are not part of them. Lines headed by an entry give the natural chain unless they say otherwise; changes in a name come on top.
UniProt P22366: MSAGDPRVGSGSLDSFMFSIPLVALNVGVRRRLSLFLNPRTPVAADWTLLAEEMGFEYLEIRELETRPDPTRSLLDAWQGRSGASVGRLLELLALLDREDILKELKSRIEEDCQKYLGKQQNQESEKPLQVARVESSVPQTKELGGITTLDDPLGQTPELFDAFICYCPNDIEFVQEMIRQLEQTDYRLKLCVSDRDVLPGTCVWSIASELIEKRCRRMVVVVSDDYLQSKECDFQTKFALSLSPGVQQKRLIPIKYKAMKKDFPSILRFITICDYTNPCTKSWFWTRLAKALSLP
UniProt O60603: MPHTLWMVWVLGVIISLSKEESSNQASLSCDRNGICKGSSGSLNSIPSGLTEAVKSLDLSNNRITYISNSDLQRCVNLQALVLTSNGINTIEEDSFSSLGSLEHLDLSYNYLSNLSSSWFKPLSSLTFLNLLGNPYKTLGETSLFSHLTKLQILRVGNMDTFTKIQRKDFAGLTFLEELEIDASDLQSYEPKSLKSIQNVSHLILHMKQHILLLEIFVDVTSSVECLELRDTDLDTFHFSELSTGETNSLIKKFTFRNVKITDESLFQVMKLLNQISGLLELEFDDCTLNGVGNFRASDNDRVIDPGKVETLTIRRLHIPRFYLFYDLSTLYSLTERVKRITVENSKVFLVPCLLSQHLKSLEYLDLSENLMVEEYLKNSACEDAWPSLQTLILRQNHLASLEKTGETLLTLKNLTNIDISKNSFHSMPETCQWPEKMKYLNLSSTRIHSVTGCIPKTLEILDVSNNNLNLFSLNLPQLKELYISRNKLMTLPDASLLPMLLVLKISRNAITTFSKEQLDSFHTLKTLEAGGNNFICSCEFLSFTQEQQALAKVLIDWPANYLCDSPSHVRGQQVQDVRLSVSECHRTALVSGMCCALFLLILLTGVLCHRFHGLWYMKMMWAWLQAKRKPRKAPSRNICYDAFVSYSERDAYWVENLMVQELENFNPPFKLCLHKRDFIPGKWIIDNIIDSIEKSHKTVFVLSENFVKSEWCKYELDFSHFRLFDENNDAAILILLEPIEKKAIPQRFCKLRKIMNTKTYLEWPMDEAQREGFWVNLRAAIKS

GST-MyD88 (mouse) = GST-MyD88 (mouse) (UniProt P22366); assay: pull-down; GST-MyD88 cotransfected with Myc-TLR2 variants in HEK293T; GST-tagged protein collected with Glutathione Sepharose 4B, Western blot; with or without SRC and SYK inhibitors
Myc-TLR2 (WT) (human) = Myc-TLR2 (WT) (human) (UniProt O60603); assay: co-IP; tagged constructs cotransfected in HEK293T; immune complexes of the tagged bait (HA-SRC, HA-SYK, Flag-TLR2, Myc-TLR2, Flag-3BP2) on Dynabeads Protein A or G at 4 C, Western blot; with or without coexpressed SRC (Figure 1L)
Flag-3BP2 (mouse) [2] = target: T1, Flag-3BP2 (mouse); assay: as above; remark: listed apart in the source

In the case of GST-MyD88 (from UniProt P22366 1-296), the binding (Flag-3BP2 (mouse) [1]) is reported as “binds”.

With “Myc-TLR2 (WT) (from UniProt O60603 21-784) (receptor)” the binding (GST-MyD88 (mouse)) was “binds” and the binding (Flag-3BP2 (mouse) [1]) was “binds”.

B1: GST-PPP1R11 (enzyme, UniProt O60927 1-126)
chain: MAEAGAGLSETVTETTVTVTTEPENRSLTIKLRKRKPEKKVEWTSDTVDNEHMGRRSSKCCCIYEKPRAFGESSTESDEEEEEGCGHTHCVRGHRKGRRRATLGPTPTTPPQPPDPSQPPPGPMQH
For B1, the binding (Myc-TLR2 (WT) (human)) was “binds”.

B2: HA-TRAF6 (protein, UniProt P70196 1-530)
chain: MSLLNCENSCGSSQSSSDCCAAMAASCSAAVKDDSVSGSASTGNLSSSFMEEIQGYDVEFDPPLESKYECPICLMALREAVQTPCGHRFCKACIIKSIRDAGHKCPVDNEILLENQLFPDNFAKREILSLTVKCPNKGCLQKMELRHLEDHQVHCEFALVNCPQCQRPFQKCQVNTHIIEDCPRRQVSCVNCAVSMAYEEKEIHDQSCPLANIICEYCGTILIREQMPNHYDLDCPTAPIPCTFSVFGCHEKMQRNHLARHLQENTQLHMRLLAQAVHNVNLALRPCDAASPSRGCRPEDPNYEETIKQLESRLVRQDHQIRELTAKMETQSMYVGELKRTIRTLEDKVAEMEAQQCNGIYIWKIGNFGMHLKSQEEERPVVIHSPGFYTGRPGYKLCMRLHLQLPTAQRCANYISLFVHTMQGEYDSHLPWPFQGTIRLTILDQSEALIRQNHEEVMDAKPELLAFQRPTIPRNPKGFGYVTFMHLEALRQGTFIKDDTLLVRCEVSTRFDMGGLRKEGFQPRSTDAGV
For B2, the binding (Flag-3BP2 (mouse) [2]) was “binds”.

— article PMC8970677
